{
  "source": "paper PMC12574955",
  "about": "“The Ync13–Rga7–Rng10 complex selectively coordinates secretory vesicle trafficking and secondary septum formation during cytokinesis” (PLOS Biology, 2025)",
  "target": "T1, Ync13-3FLAG (Schizosaccharomyces pombe) (UniProt O13683)",
  "T1 sequence": "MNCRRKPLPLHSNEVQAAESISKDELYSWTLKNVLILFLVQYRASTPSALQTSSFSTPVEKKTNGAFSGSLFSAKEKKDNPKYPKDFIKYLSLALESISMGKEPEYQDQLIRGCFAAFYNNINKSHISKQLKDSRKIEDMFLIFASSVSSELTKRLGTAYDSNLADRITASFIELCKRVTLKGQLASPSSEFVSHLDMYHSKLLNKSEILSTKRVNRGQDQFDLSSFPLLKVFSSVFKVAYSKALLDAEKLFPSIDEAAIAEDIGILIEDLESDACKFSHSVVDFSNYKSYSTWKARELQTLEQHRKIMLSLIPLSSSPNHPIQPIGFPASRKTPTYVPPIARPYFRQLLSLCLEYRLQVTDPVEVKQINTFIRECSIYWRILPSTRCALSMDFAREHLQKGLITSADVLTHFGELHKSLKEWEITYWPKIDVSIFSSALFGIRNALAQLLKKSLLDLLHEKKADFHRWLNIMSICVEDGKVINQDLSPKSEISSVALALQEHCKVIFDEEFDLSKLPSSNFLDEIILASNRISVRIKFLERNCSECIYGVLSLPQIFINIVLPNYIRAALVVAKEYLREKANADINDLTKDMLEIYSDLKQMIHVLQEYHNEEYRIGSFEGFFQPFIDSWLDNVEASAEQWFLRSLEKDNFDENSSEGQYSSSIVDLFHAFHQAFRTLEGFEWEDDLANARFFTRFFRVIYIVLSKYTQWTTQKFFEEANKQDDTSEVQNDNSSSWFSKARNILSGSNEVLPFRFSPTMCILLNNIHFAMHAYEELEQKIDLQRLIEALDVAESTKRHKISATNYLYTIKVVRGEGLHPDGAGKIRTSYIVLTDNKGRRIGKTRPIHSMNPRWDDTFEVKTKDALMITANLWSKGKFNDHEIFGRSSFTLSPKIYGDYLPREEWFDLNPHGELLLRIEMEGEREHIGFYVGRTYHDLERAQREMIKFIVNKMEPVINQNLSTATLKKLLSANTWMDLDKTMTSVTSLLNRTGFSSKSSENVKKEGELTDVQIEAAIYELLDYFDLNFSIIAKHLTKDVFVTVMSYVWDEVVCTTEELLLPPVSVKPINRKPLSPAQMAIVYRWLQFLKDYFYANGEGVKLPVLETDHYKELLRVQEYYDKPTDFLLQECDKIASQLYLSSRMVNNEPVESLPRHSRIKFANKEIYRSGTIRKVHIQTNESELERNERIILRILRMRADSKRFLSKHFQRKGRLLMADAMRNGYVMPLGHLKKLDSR",
  "experiment": "affinity purification with mass spectrometry; Ync13-3xFLAG from S. pombe cell extract on anti-FLAG M2 affinity gel, 300 mM NaCl, eluted with 3xFLAG peptide; gel bands except Ync13 analysed by mass spectrometry",
  "note": "These are yes or no findings as the source states them, for the method shown. Binding seen in cells or lysates may run through a third protein. These calls come from enrichment with a bait or labelling near it, and not all partners need be listed. Sequences can lack the tags named with a protein.",
  "data": [
    {"binder": "Rga7-6xHis (natural protein, Schizosaccharomyces pombe, UniProt O94466 1-695, looked up, Rga7, F-BAR protein and Rho2 GAP of Schizosaccharomyces pombe; FL Rga7 in pET21a; also called Rga7-6His; not shown: His6, C-terminal, kept) MLSAPSSSTTPASPPTSPPNTTSSDDFAVLKEPKVEAILNSELGLAILNDRIKDYLLTCKELAGFFKKRSILEEESGKNLQKLAKSYLETFQSKHHSPQSFSASVITSMEIHEQLANHSLTLQKTLSAFSDQVIEFHKNAERKRKSIKEYAKKQENAYLEAVMQMDKSKSRFKGAETEYNRALDNKNTGDSQKKVGFFKPKSNAQLTKLEDEARLKAENAESDMHSKIENAQNVQKQLLCIHRPNYIKQFFSLQREIESSLIANYLRYTKLCESNTLLNGLTIRPQKPTPTNCGLQHALDNINANTDFVQYVLHASIKHEDNKNPTDASKTKIIQPPSSYGTGSSAGKTNPPVNPTIKVTAAIPSPLQNTNPAPSTFPNPSVASPAFPNSSTSNPSTAPASASPLASTLKPSTANDTNGSSSSSSSNPRTSSPLASNAENKPPVAQQSPPVLLPTLPPIQTTTIQTSREVAPPPSSINSNRAASPFRPTSVSPQPSSPTKSLLFGARLDAIILREHSNIPNIVMQCTSQVENFGLNLQGIYRVPSSSARVNMLRSQFENNPLLQLHTPEDYENDVHAVADLLKIFFRELREPLIPDNHQRDFIDAGNVEDESRRRDAVHRAINDLPDANYSTIRHLTIHLAKIKENSDVNKMSTNNLAIIWGPTIIKQATIPEISSFSRTIEILIDYCFTIFDYD", "values": [
      {"measurement": "binding", "result": "binds"}
    ]}
  ]
}
